Data as given in patent US8034636B2, “Hydrophilic chemiluminescent acridinium labeling reagents” (Quest Diagnostics Investments Incorporated, priority 2002, dated 2011).

Assay: Specific chemiluminescence activity (Berthold chemiluminometer)
Type: physicochemical
Description: To a stirred suspension of 2,6-(dimethyl)phenyl-N-(3-sulfopropyl)acridine-9-carboxylate (180 mg, 0.40 mmole) in 12 ml dry dichloromethane in a 25-ml oven-dried flask under argon, was added 400 microliters of 99+% chlorosulfonic acid (0.70 g, 6.0 mmole). The chlorosulfonation was allowed to proceed overnight under argon at room temperature. The small amount of insoluble brown solid was allowed to settle and then the yellow supernatant was added dropwise from a Pasteur pipet to a flask containing stirred 100 ml of anhydrous ether under argon. The product was collected on a sintered glass funnel under a blanket of argon under a large inverted funnel and then washed with about 30 ml of dry ether. […] Specific chemiluminescence activity in 0.4% BSA in phosphate buffer pH 6.0 using the Berthold chemiluminometer=3.8×10^19 relative luminescence units per mole.
In preparation for conjugation using SPAE, 1 mg (6.7 nanomole) of goat anti-TSH tag antibody was buffer-exchanged in an Amicon Centricon concentrator cartridge (MW=cut-off=30,000) to produce a solution of 1 mg antibody in 400 μl of 100 mM carbonate pH 9.6. […] The UV-vis spectrum of an aliquot of the conjugate fraction acidified to pH 2 was recorded to determine the number of acridinium labels per IgG molecule. […] The specific chemiluminescence activity for this conjugate measured using the Berthold Chemiluminometer was 743 RLU/pg. […]

Cc1ccc(S(=O)(=O)Cl)c(C)c1OC(=O)c1c2ccccc2[n+](CCCS(=O)(=O)[O-])c2ccccc12 [SPAE, 2,6-(dimethyl)-3-chlorosulfonylphenyl-N-(3-sulfopropyl)-acridinium-9-carboxylate]
Specific chemiluminescence activity (0.4% BSA in phosphate buffer pH 6.0, Berthold chemiluminometer): 3.8×10^19 relative luminescence units per mole

SPAE-(polyethyleneoxide)-4-pentafluorophenyl ester [SPAE-PEO4-PFP]
specific chemiluminescence activity of conjugate (goat polyclonal anti-TSH conjugate, 22× reagent/antibody molar ratio): 332 RLU/pg
